From publication PMC3514159
These are yes or no findings as the source states them, for the method shown. For some of these results: In cells and extracts the contact can be indirect. Some binding calls cover weakened binding; strength is not graded here. Tags and fused reporters may be left off the sequences shown.

The chains behind the UniProt entries cited, without tags or fusion partners.
UniProt P09022: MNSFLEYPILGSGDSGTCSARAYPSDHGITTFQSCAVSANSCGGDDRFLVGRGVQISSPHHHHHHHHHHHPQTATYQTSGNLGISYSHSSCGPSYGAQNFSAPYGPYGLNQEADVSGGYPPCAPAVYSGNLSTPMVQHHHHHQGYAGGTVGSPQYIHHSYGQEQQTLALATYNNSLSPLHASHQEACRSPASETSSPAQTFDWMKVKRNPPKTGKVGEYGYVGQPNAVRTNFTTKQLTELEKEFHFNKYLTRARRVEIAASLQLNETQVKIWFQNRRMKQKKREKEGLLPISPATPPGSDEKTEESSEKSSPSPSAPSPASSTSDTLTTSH

B1: chromosome 1 open reading frame 94 (protein, UniProt Q6P1W5 1-598)
chain: MRGGGGCVLALGGQRGFQKERRRMASGNGLPSSSALVAKGPCALGPFPRYIWIHQDTPQDSLDKTCHEIWKRVQGLPEASQPWTSMEQLSVPVVGTLRGNELSFQEEALELSSGKDEISLLVEQEFLSLTKEHSILVEESSGELEVPGSSPEGTRELAPCILAPPLVAGSNERPRASIIVGDKLLKQKVAMPVISSRQDCDSATSTVTDILCAAEVKSSKGTEDRGRILGDSNLQVSKLLSQFPLKSTETSKVPDNKNVLDKTRVTKDFLQDNLFSGPGPKEPTGLSPFLLLPPRPPPARPDKLPELPAQKRQLPVFAKICSKPKADPAVERHHLMEWSPGTKEPKKGQGSLFLSQWPQSQKDACGEEGCCDAVGTASLTLPPKKPTCPAEKNLLYEFLGATKNPSGQPRLRNKVEVDGPELKFNAPVTVADKNNPKYTGNVFTPHFPTAMTSATLNQPLWLNLNYPPPPVFTNHSTFLQYQGLYPQQAARMPYQQALHPQLGCYSQQVMPYNPQQMGQQIFRSSYTPLLSYIPFVQPNYPYPQRTPPKMSANPRDPPLMAGDGPQYLFPQGYGFGSTSGGPLMHSPYFSSSGNGINF
B2: family with sequence similarity 154, member A (protein, UniProt Q8IYX7 1-474)
chain: MKTKCICELCSCGRHHCPHLPTKIYDKTEKPCLLSEYTENYPFYHSYLPRESFKPRREYQKGPIPMEGLTTSRRDFGPHKVAPVKVHQYDQFVPSEENMDLLTTYKKDYNPYPVCRVDPIKPRDSKYPCSDKMECLPTYKADYLPWNQPRREPLRLEHKYQPASVRFDNRTTHQDDYPIKGLVKTISCKPLAMPKLCNIPLEDVTNYKMSYVAHPVEKRFVHEAEKFRPCEIPFESLTTQKQSYRGLMGEPAKSLKPLARPPGLDMPFCNTTEFRDKYQAWPMPRMFSKAPITYVPPEDRMDLLTTVQAHYTCPKGAPAQSCRPALQIKKCGRFEGSSTTKDDYKQWSSMRTEPVKPVPQLDLPTEPLDCLTTTRAHYVPHLPINTKSCKPHWSGPRGNVPVESQTTYTISFTPKEMGRCLASYPEPPGYTFEEVDALGHRIYKPVSQAGSQQSSHLSVDDSENPNQRELEVLA
B3: four and a half LIM domains 5 (protein, UniProt Q5TD97 1-284)
chain: MTTAHFYCQYCTASLLGKKYVLKDDSPYCVTCYDRVFSNYCEECKKPIESDSKDLCYKDRHWHEGCFKCTKCNHSLVEKPFAAKDERLLCTECYSNECSSKCFHCKRTIMPGSRKMEFKGNYWHETCFVCENCRQPIGTKPLISKESGNYCVPCFEKEFAHYCNFCKKVITSGGITFCDQLWHKECFLCSGCRKDLCEEQFMSRDDYPFCVDCYNHLYANKCVACSKPISGLTGAKFICFQDSQWHSECFNCGKCSVSLVGKGFLTQNKEIFCQKCGSGMDTDI
B4: keratin associated protein 4-12 (protein, UniProt Q9BQ66 1-201)
chain: MVNSCCGSVCSDQGCGLENCCRPSCCQTTCCRTTCCRPSCCVSSCCRPQCCQSVCCQPTCCRPSCCQTTCCRTTCCRPSCCVSSCCRPQCCQSVCCQPTCCRPSCCQTTCCRTTCCRPSCCVSSCCRPQCCQSVCCQPTCCRPSCCISSSCCPSCCESSCCRPCCCLRPVCGRVSCHTTCYRPTCVISTCPRPLCCASSCC
B5: lectin, galactoside-binding, soluble, 13 (protein, UniProt Q9UHV8 1-139)
chain: MSSLPVPYKLPVSLSVGSCVIIKGTPIHSFINDPQLQVDFYTDMDEDSDIAFRFRVHFGNHVVMNRREFGIWMLEETTDYVPFEDGKQFELCIYVHYNEYEIKVNGIRIYGFVHRIPPSFVKMVQVSRDISLTSVCVCN
B6: ligand of numb-protein X 2 (protein, UniProt Q8N448 1-690)
chain: MGTTSDEMVSVEQTSSSSLNPLCFECGQQHWTRENHLYNYQNEVDDDLVCHICLQPLLQPLDTPCGHTFCYKCLRNFLQEKDFCPLDRKRLHFKLCKKSSILVHKLLDKLLVLCPFSSVCKDVMQRCDLEAHLKNRCPGASHRRVALERRKTSRTQAEIENENGPTLLDPAGTLSPEADCLGTGAVPVERHLTSASLSTWSEEPGLDNPAFEESAGADTTQQPLSLPEGEITTIEIHRSNPYIQLGISIVGGNETPLINIVIQEVYRDGVIARDGRLLAGDQILQVNNYNISNVSHNYARAVLSQPCNTLHLTVLRERRFGNRAHNHSDSNSPREEIFQVALHKRDSGEQLGIKLVRRTDEPGVFILDLLEGGLAAQDGRLSSNDRVLAINGHDLKYGTPELAAQIIQASGERVNLTIARPGKPQPGNTIREAGNHSSSSQHHTPPPYYSRPSSHKDLTQCVTCQEKHITVKKEPHESLGMTVAGGRGSKSGELPIFVTSVPPHGCLARDGRIKRGDVLLNINGIDLTNLSHSEAVAMLKASAASPAVALKALEVQIVEEATQNAEEQPSTFSENEYDASWSPSWVMWLGLPSTLHSCHDIVLRRSYLGSWGFSIVGGYEENHTNQPFFIKTIVLGTPAYYDGRLKCGDMIVAVNGLSTVGMSHSALVPMLKEQRNKVTLTVICWPGSLV
B7: leupaxin (protein, UniProt O60711 1-386)
chain: MEELDALLEELERSTLQDSDEYSNPAPLPLDQHSRKETNLDETSEILSIQDNTSPLPAQLVYTTNIQELNVYSEAQEPKESPPPSKTSAAAQLDELMAHLTEMQAKVAVRADAGKKHLPDKQDHKASLDSMLGGLEQELQDLGIATVPKGHCASCQKPIAGKVIHALGQSWHPEHFVCTHCKEEIGSSPFFERSGLAYCPNDYHQLFSPRCAYCAAPILDKVLTAMNQTWHPEHFFCSHCGEVFGAEGFHEKDKKPYCRKDFLAMFSPKCGGCNRPVLENYLSAMDTVWHPECFVCGDCFTSFSTGSFFELDGRPFCELHYHHRRGTLCHGCGQPITGRCISAMGYKFHPEHFVCAFCLTQLSKGIFREQNDKTYCQPCFNKLFPL
B8: mannosyl (α-1,6-)-glycoprotein β-1,6-N-acetyl-glucosaminyltransferase, isozyme B (protein, UniProt Q3V5L5 1-792)
chain: MITVNPDGKIMVRRCLVTLRPFRLFVLGIGFFTLCFLMTSLGGQFSARRLGDSPFTIRTEVMGGPESRGVLRKMSDLLELMVKRMDALARLENSSELHRAGGDLHFPADRMPPGAGLMERIQAIAQNVSDIAVKVDQILRHSLLLHSKVSEGRRDQCEAPSDPKFPDCSGKVEWMRARWTSDPCYAFFGVDGTECSFLIYLSEVEWFCPPLPWRNQTAAQRAPKPLPKVQAVFRSNLSHLLDLMGSGKESLIFMKKRTKRLTAQWALAAQRLAQKLGATQRDQKQILVHIGFLTEESGDVFSPRVLKGGPLGEMVQWADILTALYVLGHGLRVTVSLKELQSNLGVPPGRGSCPLTMPLPFDLIYTDYHGLQQMKRHMGLSFKKYRCRIRVIDTFGTEPAYNHEEYATLHGYRTNWGYWNLNPKQFMTMFPHTPDNSFMGFVSEELNETEKRLIKGGKASNMAVVYGKEASIWKLQGKEKFLGILNKYMEIHGTVYYESQRPPEVPAFVKNHGLLPQPEFQQLLRKAKLFIGFGFPYEGPAPLEAIANGCIFLQSRFSPPHSSLNHEFFRGKPTSREVFSQHPYAENFIGKPHVWTVDYNNSEEFEAAIKAIMRTQVDPYLPYEYTCEGMLERIHAYIQHQDFCRAPDPALPEAHAPQSPFVLAPNATHLEWARNTSLAPGAWPPAHALRAWLAVPGRACTDTCLDHGLICEPSFFPFLNSQDAFLKLQVPCDSTESEMNHLYPAFAQPGQECYLQKEPLLFSCAGSNTKYRRLCPCRDFRKGQVALCQGCL
B9: NEDD4 binding protein 2-like 2 (protein, UniProt Q92802 1-583)
chain: MSYGEIEGKFLGPREEVTSEPRCKKLKSTTESYVFHNHSNADFHRIQEKTGNDWVPVTIIDVRGHSYLQENKIKTTDLHRPLHDEMPGNRPDVIESIDSQVLQEARPPLVSADDEIYSTSKAFIGPIYKPPEKKKRNEGRNEAHVLNGINDRGGQKEKQKFNSEKSEIDNELFQFYKEIEELEKEKDGFENSCKESEPSQEQFVPFYEGHNNGLLKPDEEKKDLSNKAMPSHCDYQQNLGNEPDKYPCNGQVIPTFCDTSFTSFRPEWQSVYPFIVPYGPPLPSLNYHLNIQRFSGPPNPPSNIFQAQDDSQIQNGYYVNNCHVNWNCMTFDQNNEYTDCSENRSSVHPSGNGCSMQDRYVSNGFCEVRERCWKDHCMDKHNGTDRFVNQQFQEEKLNKLQKLLILLRGLPGSGKTTLSRILLGQNRDGIVFSTDDYFHHQDGYRYNVNQLGDAHDWNQNRAKQAIDQGRSPVIIDNTNIQAWEMKPYVEVAIGKGYRVEFHEPETWWKFDPEELEKRNKHGVSRKKIAQMLDRYEYQMSISIVMNSVEPSHKSTQRPPPPQGRQRWGGSLGSHNRVCVTNNH
B10: O-linked N-acetylglucosamine (GlcNAc) transferase (protein, UniProt O15294 1-1046)
chain: MASSVGNVADSTEPTKRMLSFQGLAELAHREYQAGDFEAAERHCMQLWRQEPDNTGVLLLLSSIHFQCRRLDRSAHFSTLAIKQNPLLAEAYSNLGNVYKERGQLQEAIEHYRHALRLKPDFIDGYINLAAALVAAGDMEGAVQAYVSALQYNPDLYCVRSDLGNLLKALGRLEEAKACYLKAIETQPNFAVAWSNLGCVFNAQGEIWLAIHHFEKAVTLDPNFLDAYINLGNVLKEARIFDRAVAAYLRALSLSPNHAVVHGNLACVYYEQGLIDLAIDTYRRAIELQPHFPDAYCNLANALKEKGSVAEAEDCYNTALRLCPTHADSLNNLANIKREQGNIEEAVRLYRKALEVFPEFAAAHSNLASVLQQQGKLQEALMHYKEAIRISPTFADAYSNMGNTLKEMQDVQGALQCYTRAIQINPAFADAHSNLASIHKDSGNIPEAIASYRTALKLKPDFPDAYCNLAHCLQIVCDWTDYDERMKKLVSIVADQLEKNRLPSVHPHHSMLYPLSHGFRKAIAERHGNLCLDKINVLHKPPYEHPKDLKLSDGRLRVGYVSSDFGNHPTSHLMQSIPGMHNPDKFEVFCYALSPDDGTNFRVKVMAEANHFIDLSQIPCNGKAADRIHQDGIHILVNMNGYTKGARNELFALRPAPIQAMWLGYPGTSGALFMDYIITDQETSPAEVAEQYSEKLAYMPHTFFIGDHANMFPHLKKKAVIDFKSNGHIYDNRIVLNGIDLKAFLDSLPDVKIVKMKCPDGGDNADSSNTALNMPVIPMNTIAEAVIEMINRGQIQITINGFSISNGLATTQINNKAATGEEVPRTIIVTTRSQYGLPEDAIVYCNFNQLYKIDPSTLQMWANILKRVPNSVLWLLRFPAVGEPNIQQYAQNMGLPQNRIIFSPVAPKEEHVRRGQLADVCLDTPLCNGHTTGMDVLWAGTPMVTMPGETLASRVAASQLTCLGCLELIAKNRQEYEDIAVKLGTDLEYLKKVRGKVWKQRISSPLFNTKQYTMELERLYLQMWEHYAAGNKPDHMIKPVEVTESA
B11: phospholipid scramblase 1 (protein, UniProt O15162 1-318)
chain: MDKQNSQMNASHPETNLPVGYPPQYPPTAFQGPPGYSGYPGPQVSYPPPPAGHSGPGPAGFPVPNQPVYNQPVYNQPVGAAGVPWMPAPQPPLNCPPGLEYLSQIDQILIHQQIELLEVLTGFETNNKYEIKNSFGQRVYFAAEDTDCCTRNCCGPSRPFTLRIIDNMGQEVITLERPLRCSSCCCPCCLQEIEIQAPPGVPIGYVIQTWHPCLPKFTIQNEKREDVLKISGPCVVCSCCGDVDFEIKSLDEQCVVGKISKHWTGILREAFTDADNFGIQFPLDLDVKMKAVMIGACFLIDFMFFESTGSQEQKSGVW

Target: VC155-Hoxa1 (mouse) (UniProt P09022)
Assay: split reporter; BiFC in transfected MCF10A cells: VN173-hORF with VC155-Hoxa1; fixed 24 h after transfection, confocal microscopy

Question: B1 was tested. Which binding did it give?
Answer: The binding was “binds”.

Question: With B2 as the binder, how does the binding read?
Answer: The binding was “binds”.

Question: With B3 as the binder, how does the binding read?
Answer: Its binding is “binds”.

Question: For B4, which binding is on record?
Answer: The binding was “binds”.

Question: For B5, which binding is on record?
Answer: The binding was “binds”.

Question: B6 was tested. Which binding did it give?
Answer: Its binding is “binds”.

Question: B7 was tested. Which binding did it give?
Answer: Its binding is “binds”.

Question: B8 was tested. Which binding did it give?
Answer: The binding was “binds”.

Question: How did the binding turn out when B9 was run?
Answer: The binding was “binds”.

Question: Which binding does the source give for B10 here?
Answer: The binding was “binds”.

Question: How did the binding turn out when B11 was run?
Answer: Its binding is “binds”.

Target: Hoxa1 (mouse) (UniProt P09022)
Assay: two-hybrid; DB-Hoxa1 (Gal4 DNA binding domain) in MATα Y8930 mated with the AD-hORF library (human ORFeome v3.1) in MATa Y8800; 30°C; selection on Sc-L-T-H + 1 mM 3AT, retest on Sc-L-T-H, Sc-L-T-A and Sc-L-T-H-A+3AT

Question: How did the binding turn out when B1 was run?
Answer: The binding was “binds”.

Question: Which binding does the source give for B2 here?
Answer: The binding was “binds”.

Question: For B3, which binding is on record?
Answer: The binding was “binds”.

Question: Which binding does the source give for B4 here?
Answer: Its binding is “binds”.

Question: Which binding does the source give for B5 here?
Answer: The binding was “binds”.

Question: For B6, which binding is on record?
Answer: Its binding is “binds”.

Question: How did the binding turn out when B7 was run?
Answer: Its binding is “binds”.

Question: How did the binding turn out when B8 was run?
Answer: Its binding is “binds”.

Question: For B9, which binding is on record?
Answer: The binding was “binds”.

Question: B10 was tested. Which binding did it give?
Answer: The binding was “binds”.

Question: B11 was tested. Which binding did it give?
Answer: The binding was “binds”.
